Assay results published in the supplement of paper PMC4604168 (melanoma cell lines).
The list shows a part of the results. Repeats are few or missing, and single values can be far off.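 Imaging used 1,536-well plates; nuclei positive for cleaved PARP by antibody were divided by total DNA-stained nuclei to yield the apoptosis fraction. Doses for screening kept most cells viable, and cell lines differ markedly in resting and induced cleaved-PARP levels.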

Key:
Experiment in all cases: cleaved PARP positive nuclei fraction relative to DMSO control; melanoma cells; higher = more apoptosis
Conditions in all cases: library dose: low library concentration; 72 h
501Mel = tested on: 501Mel
A101D = tested on: A101D
A2058 = tested on: A2058
A375 = tested on: A375
C32 = tested on: C32
CBRC008 = tested on: CBRC008 (line from a melanoma biopsy)
CBRC014 = tested on: CBRC014 (line from a melanoma biopsy)
CBRC016 = tested on: CBRC016 (line from a melanoma biopsy)
CBRC017 = tested on: CBRC017 (line from a melanoma biopsy)
CBRC034 = tested on: CBRC034 (line from a melanoma biopsy)
COLO792 = tested on: COLO792
COLO800 = tested on: COLO800
COLO829 = tested on: COLO829
G361 = tested on: G361
IPC-298 = tested on: IPC-298
IST-MEL1 = tested on: IST-MEL1
LB2518-MEL = tested on: LB2518-MEL
LOXIMVI = tested on: LOXIMVI
MEL-HO = tested on: MEL-HO

| Structure (SMILES) | cleaved PARP positive nuclei fraction (501Mel) | cleaved PARP positive nuclei fraction (A101D) | cleaved PARP positive nuclei fraction (A2058) | cleaved PARP positive nuclei fraction (A375) | cleaved PARP positive nuclei fraction (C32) | cleaved PARP positive nuclei fraction (CBRC008) | cleaved PARP positive nuclei fraction (CBRC014) | cleaved PARP positive nuclei fraction (CBRC016) | cleaved PARP positive nuclei fraction (CBRC017) | cleaved PARP positive nuclei fraction (CBRC034) | cleaved PARP positive nuclei fraction (COLO792) | cleaved PARP positive nuclei fraction (COLO800) | cleaved PARP positive nuclei fraction (COLO829) | cleaved PARP positive nuclei fraction (G361) | cleaved PARP positive nuclei fraction (IPC-298) | cleaved PARP positive nuclei fraction (IST-MEL1) | cleaved PARP positive nuclei fraction (LB2518-MEL) | cleaved PARP positive nuclei fraction (LOXIMVI) | cleaved PARP positive nuclei fraction (MEL-HO) |
| --- | --- | --- | --- | --- | --- | --- | --- | --- | --- | --- | --- | --- | --- | --- | --- | --- | --- | --- | --- |
| COc1ccc(C2=N[C@@H](c3ccc(Cl)cc3)[C@@H](c3ccc(Cl)cc3)N2C(=O)N2CCNC(=O)C2)c(OC(C)C)c1 [Nutlin-3] + O=C(O)c1ccc2c(c1)nc(Nc1cccc(Cl)c1)c1ccncc12 [CX4945] (first compound 0.1 µM, partner dose 0.4 µM) | 85.8% | 177% | 343% | 103% | 167% | 145% | 117% | 61.6% | 154% | 143% | 122% | 85.2% | 107% | 90% | 42.7% | 40.7% | 126% | 265% | 70.4% |
| Cn1sc(=O)n(Cc2ccccc2)c1=O + O=C(O)c1ccc2c(c1)nc(Nc1cccc(Cl)c1)c1ccncc12 [CX4945] (first compound 0.4 µM, partner dose 0.4 µM) | 63.9% | 214% | 340% | 89.7% | 75.1% | 33.3% | 82.2% | 81.7% | 114% | 103% | 63.3% | 119% | 61% | 153% | 88.6% | 47.2% | 111% | 40.8% | 130% |
| Cn1cnc2c(F)c(Nc3ccc(Br)cc3Cl)c(C(=O)NOCCO)cc21 [selumetinib] + Nc1ccn([C@@H]2O[C@H](CO)[C@@H](O)C2(F)F)c(=O)n1 [gemcitabine] (first compound 0.015 µM, partner dose 0.0004 µM) | 1150% | 111% | 226% | 308% | 77.6% | 83.7% | 84.2% | 269% | 172% | 124% | 159% | 58.7% | 84.9% | 147% | 254% | 119% | 149% | 40.1% | 109% |
| CC(=O)O[C@@]12CO[C@@H]1C[C@H](O)[C@@]1(C)C(=O)[C@H](O)C3=C(C)[C@@H](OC(=O)[C@H](O)[C@@H](NC(=O)OC(C)(C)C)c4ccccc4)C[C@@](O)([C@@H](OC(=O)c4ccccc4)[C@H]21)C3(C)C [Docetaxel] + C[C@]1(c2nc3c(C(N)=O)cccc3[nH]2)CCCN1 [Veliparib] (first compound 0.0001 µM, partner dose 1.4 µM) | 132% | 104% | 2930% | 5540% | 95.5% | 580% | 137% | 160% | 252% | 106% | 408% | 507% | 254% | 494% | 322% | 154% | 169% | 128% | 77.7% |
| NC1(c2ccc(-c3nc4ccn5c(=O)[nH]nc5c4cc3-c3ccccc3)cc2)CCC1 + O=C(O)[C@@H]1[O][Sb](=[O])([O][Sb]2(=[O])[O][C@H]([C@H](O)CO)[C@H](O)[C@H](C(=O)O)[O]2)[O][C@H]([C@H](O)CO)[C@@H]1O [stibogluconate] (first compound 0.4 µM, partner dose 2 µM) | 52.9% | 122% | 66.4% | 110% | 69.6% | 44.1% | 75.4% | 26% | 92.5% | 112% | 77.3% | 149% | 79% | 102% | 112% | 135% | 182% | 120% | 118% |
| NC1(c2ccc(-c3nc4ccn5c(=O)[nH]nc5c4cc3-c3ccccc3)cc2)CCC1 + Cn1nnc2c(C(N)=O)ncn2c1=O [temozolomide] (first compound 0.4 µM, partner dose 2 µM) | 287% | 29.4% | 53.3% | 250% | 64.8% | 93% | 108% | 46.6% | 81.4% | 120% | 37.2% | 32.7% | 38.7% | 93% | 88.5% | 261% | 107% | 128% | 132% |
| Cn1cnc2c(F)c(Nc3ccc(Br)cc3Cl)c(C(=O)NOCCO)cc21 [selumetinib] + Nc1nc(F)nc2c1ncn2[C@@H]1O[C@H](CO)[C@@H](O)[C@@H]1O [fludarabine] (first compound 0.015 µM, partner dose 0.2 µM) | 13800% | 159% | 138% | 1290% | 89.4% | 80.5% | 90.1% | 72.5% | 141% | 133% | 48% | 104% | 80.7% | 136% | 133% | 128% | 64.3% | 83.1% | 347% |
| Cn1cnc2c(F)c(Nc3ccc(Br)cc3Cl)c(C(=O)NOCCO)cc21 [selumetinib] + C[C@]1(c2nc3c(C(N)=O)cccc3[nH]2)CCCN1 [Veliparib] (first compound 0.015 µM, partner dose 1.4 µM) | 1040% | 148% | 39.1% | 142% | 94% | 98.2% | 83% | 101% | 235% | 114% | 81.1% | 38.6% | 102% | 74.7% | 58.2% | 90.2% | 101% | 120% | 246% |
| CC(=O)O[C@@]12CO[C@@H]1C[C@H](O)[C@@]1(C)C(=O)[C@H](O)C3=C(C)[C@@H](OC(=O)[C@H](O)[C@@H](NC(=O)OC(C)(C)C)c4ccccc4)C[C@@](O)([C@@H](OC(=O)c4ccccc4)[C@H]21)C3(C)C [Docetaxel] + Cn1c(=O)n(-c2ccc(C(C)(C)C#N)cc2)c2c3cc(-c4cnc5ccccc5c4)ccc3ncc21 [NVP-BEZ235] (first compound 0.0001 µM, partner dose 0.004 µM) | 365% | 153% | 343% | 1290% | 106% | 328% | 151% | 134% | 233% | 34.9% | 534% | 116% | 184% | 896% | 196% | 474% | 295% | 221% | 231% |
| NC1(c2ccc(-c3nc4ccn5c(=O)[nH]nc5c4cc3-c3ccccc3)cc2)CCC1 + Cc1nc(Nc2ncc(C(=O)Nc3c(C)cccc3Cl)s2)cc(N2CCN(CCO)CC2)n1 [dasatanib] (first compound 0.4 µM, partner dose 0.004 µM) | 86.6% | 423% | 33.1% | 288% | 119% | 131% | 89.9% | 127% | 84.9% | 108% | 373% | 20.1% | 122% | 125% | 58.1% | 76.2% | 221% | 196% | 39.8% |
| CC(=O)O[C@@]12CO[C@@H]1C[C@H](O)[C@@]1(C)C(=O)[C@H](O)C3=C(C)[C@@H](OC(=O)[C@H](O)[C@@H](NC(=O)OC(C)(C)C)c4ccccc4)C[C@@](O)([C@@H](OC(=O)c4ccccc4)[C@H]21)C3(C)C [Docetaxel] + Nc1cccc2c1CN(C1CCC(=O)NC1=O)C2=O [lenalidomide] (first compound 0.0001 µM, partner dose 1 µM) | 210% | 217% | 2210% | 2680% | 79.9% | 350% | 120% | 324% | 152% | 119% | 577% | 401% | 162% | 492% | 310% | 300% | 76.1% | 96.9% | 185% |
| CC(=O)O[C@@]12CO[C@@H]1C[C@H](O)[C@@]1(C)C(=O)[C@H](O)C3=C(C)[C@@H](OC(=O)[C@H](O)[C@@H](NC(=O)OC(C)(C)C)c4ccccc4)C[C@@](O)([C@@H](OC(=O)c4ccccc4)[C@H]21)C3(C)C [Docetaxel] + C#Cc1cccc(Nc2ncnc3cc(OCCOC)c(OCCOC)cc23)c1 [erlotinib] (first compound 0.0001 µM, partner dose 0.8 µM) | 293% | 228% | 5490% | 4160% | 224% | 197% | 209% | 376% | 167% | 166% | 971% | 229% | 178% | 1170% | 332% | 61.7% | 530% | 189% | 135% |
| CCN(CC)CCNC(=O)c1c(C)[nH]c(/C=C2\C(=O)Nc3ccc(F)cc32)c1C [sunitinib] + Nc1ccn([C@@H]2O[C@H](CO)[C@@H](O)C2(F)F)c(=O)n1 [gemcitabine] (first compound 0.4 µM, partner dose 0.0004 µM) | 86.6% | 199% | 53% | 226% | 85.8% | 93% | 110% | 161% | 126% | 174% | 50.4% | 43.6% | 109% | 100% | 86.3% | 38.1% | 98.2% | 27.6% | 101% |
| C[C@]1(O)C[C@@H](c2nc(-c3ccc4ccc(-c5ccccc5)nc4c3)c3c(N)nccn32)C1 + CS(=O)(=O)c1ccc(C(=O)Nc2ccc(Cl)c(-c3ccccn3)c2)c(Cl)c1 [vismodegib] (first compound 0.4 µM, partner dose 1 µM) | 78.8% | 182% | 79% | 252% | 71.8% | 79.5% | 118% | 36.5% | 121% | 61.5% | 165% | 124% | 163% | 35.4% | 62.4% | 62.7% | 107% | 70.4% | 125% |
| CC1(C)CCC(c2ccc(Cl)cc2)=C(CN2CCN(c3ccc(C(=O)NS(=O)(=O)c4ccc(N[C@H](CCN5CCOCC5)CSc5ccccc5)c(S(=O)(=O)C(F)(F)F)c4)cc3)CC2)C1 + CC(C)C[C@H](NC(=O)[C@H](Cc1ccccc1)NC(=O)c1cnccn1)B(O)O [Bortezomib] (first compound 0.4 µM, partner dose 0.001 µM) | 8900% | 516% | 82.4% | 225% | 195% | 876% | 4800% | 720% | 19200% | 388% | 467% | 69.8% | 106% | 2270% | 161% | 533% | 719% | 144% | 89.6% |

Single records, from the list above. Values in the order: cleaved PARP positive nuclei fraction (501Mel) | cleaved PARP positive nuclei fraction (A101D) | cleaved PARP positive nuclei fraction (A2058) | cleaved PARP positive nuclei fraction (A375) | cleaved PARP positive nuclei fraction (C32) | cleaved PARP positive nuclei fraction (CBRC008) | cleaved PARP positive nuclei fraction (CBRC014) | cleaved PARP positive nuclei fraction (CBRC016) | cleaved PARP positive nuclei fraction (CBRC017) | cleaved PARP positive nuclei fraction (CBRC034) | cleaved PARP positive nuclei fraction (COLO792) | cleaved PARP positive nuclei fraction (COLO800) | cleaved PARP positive nuclei fraction (COLO829) | cleaved PARP positive nuclei fraction (G361) | cleaved PARP positive nuclei fraction (IPC-298) | cleaved PARP positive nuclei fraction (IST-MEL1) | cleaved PARP positive nuclei fraction (LB2518-MEL) | cleaved PARP positive nuclei fraction (LOXIMVI) | cleaved PARP positive nuclei fraction (MEL-HO)
NC1(c2ccc(-c3nc4ccn5c(=O)[nH]nc5c4cc3-c3ccccc3)cc2)CCC1 + Cn1nnc2c(C(N)=O)ncn2c1=O [temozolomide] (first compound 0.4 µM, partner dose 2 µM) is listed with 287% | 29.4% | 53.3% | 250% | 64.8% | 93% | 108% | 46.6% | 81.4% | 120% | 37.2% | 32.7% | 38.7% | 93% | 88.5% | 261% | 107% | 128% | 132%
CC(=O)O[C@@]12CO[C@@H]1C[C@H](O)[C@@]1(C)C(=O)[C@H](O)C3=C(C)[C@@H](OC(=O)[C@H](O)[C@@H](NC(=O)OC(C)(C)C)c4ccccc4)C[C@@](O)([C@@H](OC(=O)c4ccccc4)[C@H]21)C3(C)C [Docetaxel] + C#Cc1cccc(Nc2ncnc3cc(OCCOC)c(OCCOC)cc23)c1 [erlotinib] (first compound 0.0001 µM, partner dose 0.8 µM) is listed with 293% | 228% | 5490% | 4160% | 224% | 197% | 209% | 376% | 167% | 166% | 971% | 229% | 178% | 1170% | 332% | 61.7% | 530% | 189% | 135%
